Molecules are shown by their SMILES. Some results come without the dose or concentration used.

The nature of the series: Sensory test: stimulative smell associated with acetic acid and viscosity (toothpaste with karaya gum). The format is in vivo. Particulars: 0.0000001 part by weight of Compound 3 to 1 part, 9 panellers. The procedure: Sorbitol was heated to 70°C, followed by adding sodium saccharine and silica slowly thereto and by stirring well. Then, water previously heated to 70°C, karaya gum, sodium lauryl sulfate and sodium hydroxide were added sequentially while stirring. Finally, flavor was added thereto to prepare toothpaste as a control. Alternatively, flavone derivative (I)-containing toothpaste was prepared by adding 0.0000001 part by weight of Compound 3 of the flavone derivative (I) to 1 part by weight of similarly prepared toothpaste.
Sensory tests for obtained toothpaste were conducted by 9 panellers comprised of 6 males and 3 females.

In the case of `COc1ccc(-c2cc(=O)c3c(OC)c(OC)c(OC)c(OC)c3o2)cc1` [Compound 3, 4',5,6,7,8-pentamethoxyflavone], the “Viscosity: Those who sensed difference exists” value is 0 number of people and the “Viscosity: Those who sensed no difference” value is on record as 9 number of people.

These data come from EP0605261B1, “Use of a flavone derivative as taste modifier and a method of modifying taste” (SAN-EI GEN F.F.I., INC., priority 1992, dated 1994).
